Experimental findings from publication PMC10570040 are described below.

Common to all, as to experiment: EMSA
Data set [1] deals with EnfR wild-type (TON_1525) (Thermococcus onnurineus NA1) (UniProt B6YTS4). The conditions noted are these: EMSA: 10 mM Tris pH 7.4, 200 mM KCl, 2 mM DTT, 0.2 mM EDTA, 37 C 20 min, recombinant protein, residues 1-146, protein details: C-terminal His6, non-cleavable. A general note: Mobility shift assays separate free from complexed probe on a gel.
Data set [2] addresses EnfR R35A (Thermococcus onnurineus NA1) (UniProt B6YTS4). The conditions noted are these: drastically decreased; EMSA: 10 mM Tris pH 7.4, 200 mM KCl, 2 mM DTT, 0.2 mM EDTA, 37 C 20 min; recombinant protein; residues 1-146; protein details: C-terminal His6, non-cleavable; label: 5'-Cy5.
The target of data set [3] is EnfR R43A (Thermococcus onnurineus NA1) (UniProt B6YTS4). To be noted: drastically decreased; EMSA: 10 mM Tris pH 7.4, 200 mM KCl, 2 mM DTT, 0.2 mM EDTA, 37 C 20 min; recombinant protein; residues 1-146; protein details: C-terminal His6, non-cleavable; label: 5'-Cy5.
The target in data set [4] is EnfR T55I (Thermococcus onnurineus NA1) (UniProt B6YTS4). To be noted: 0-250 nM protein, 5 nM DNA; EMSA: 10 mM Tris pH 7.4, 200 mM KCl, 2 mM DTT, 0.2 mM EDTA, 37 C 20 min; recombinant protein; residues 1-146; protein details: C-terminal His6, non-cleavable; label: 5'-Cy5.
For data set [5], the target named is EnfR ΔN1-6 del1-6 (Thermococcus onnurineus NA1) (UniProt B6YTS4). To be noted: defect in DNA binding; EMSA: 10 mM Tris pH 7.4, 200 mM KCl, 2 mM DTT, 0.2 mM EDTA, 37 C 20 min; recombinant protein; residues 7-146; protein details: C-terminal His6, non-cleavable; label: 5'-Cy5.
Setting [6] is: 10 nM protein, band lost with cold 36-bp, label: 5'-Cy5 on forward primer, probe letters rebuilt from the primers and the genome.

Weaker means in comparison with the reference protein, sequence or condition of that experiment.

Turning to “AGACTTATTCCTATTTTGTCCTAACTTCCCTCGCCCTAAGGGACAATACCTGATGAACGGCCAAACATGTCTATTAAGGGCATTCTTAATTCAATGTTCTACGTTCATAAATGACCTTAAGTGATTTTGTTTACCCCAGTATTTGGCAGTATACAAACAGACTTAAAAAAAGCCTTCTGAGGGCTTTATTTCGCTGTTTCTCAATGGACATAACCTTTTGTTAAAAACCAAGCTATTTAAAAAGTGTTTTAAGCCAAATAGAGAACTATTATTGAAAATCAAATAGCGTACAGTACACCATATAGAGTACATTGGCGACCAAAAATGTCCCCCAATGTGGAGGTGTGGAGAATGAGTGAA (double strand) [P1563]”, the binding result in data set [1] (setting [6]) is recorded as “binds”. With “CCATCTTAAAATCTTTTTGTTTACATTATACGAGGT (double strand) [36-bp target, Cy5]”, the binding result in data set [2], in data set [3], in data set [4] and in data set [5] was “binds more weakly” each time.

With “ACGTATCTCATATTACCACCCCCCCAATGGACATAAACTTACGCGTGCTCATGTTTGTTCCCTCAGTCTCGGCTTGGTAGATAGATAAAAAAGCGTTTTTAAACCCGGAAATTGTAAACCAAAGGTTAAAACTCTTTTGTTTAGTTAGAATTTTAGAGATAACAAAAATGTTAGACGTAATGATGTCCCTTTTAGCGGTTCCGAGAACAATATAAACCATTATAACCCATTCCAAGCCACTATAGTCGTATAAAGTTCCTAATCAACTAATGAAGCAGTGTTGAACCTTTAGTTTGGAAAAGGCCGTTAAAAAAACGTTTTTAAGCAAATTCATTTAACACCTGAATGAACATCTTGGGACATTTAATGTAGGGTGGTGGGTATGGCACAGAA (double strand) [P0537]”, the binding result in data set [1] (setting [6]) was “binds”. Take “CCATCTTAAAATCGTTTTGTTTCCATTATACGAGGT (double strand) [T14G-A23C]”: the binding result in data set [1] (0-200 nM protein, 5 nM DNA, remarkable reduction, label: Cy5) is listed as “binds more weakly”.
